# Results: PubChem BioAssay AID504444 (National Center for Advancing Translational Sciences (NCATS), 2011)
# The campaign covered roughly 360,000 compounds. About 7,500 (2.1%) were called active. This list was built around the results that the source calls inconclusive (neither active nor inactive); the mix of calls is not that of the screen. The call rests on the fitted dose curve; in most records, active means well fitted inhibition curve with a large enough effect; inconclusive means small, poorly fitted or top-dose-only effect, or effect the other way; inactive means flat fitted curve, though single readings scatter. Where the call is inconclusive, the potency comes from a doubtful curve fit.
# Experiment: Nrf2 qHTS screen for inhibitors; further: nearly all actives have a fitted effect of over 60% in size
# Conditions: A549 ARE-Fluc reporter, luciferase luminescence, 18-24 h; series mostly up to 46 µM
# In short: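 In this cell-based qHTS, ARE-driven firefly luciferase in A549 cells reports Nrf2 activity; the luminescent signal after BugLite lysis is the measured value, with a prior CellTiter-Fluor read for cell health.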
# Potency means the concentration at half of the fitted maximal effect.
row,SMILES,Potency
1,COc1ccccc1CCNC(=O)C(=O)NCC1OCCN1S(=O)(=O)c1ccc2c(c1)OCCO2 (stereo unspecified),"inconclusive: 18.4 µM [falling, partial curve]"
2,COc1ccc(C2NC(=O)N(C)C3=C2C(=O)N(c2cccc(C(=O)O)c2)C3)cc1 (stereo unspecified),inactive
3,Cc1nc(NC(=O)CSc2nnc(-c3ccc4c(c3)OCO4)o2)c(Cl)cc1Cl,"inconclusive: 4.61 µM [activator, full curve]"
4,CCN(CC)CCCNC(=O)c1nn(C)c2c1CSc1ccccc1-2,"inconclusive: 16.4 µM [falling, single point]"
5,Cc1ccc(-n2nc(C)c3c(C(=O)NCCc4ccccc4)cc(C)nc32)cc1,"inconclusive: 18.4 µM [activator, single point]"
6,CC1CC(C)CN(C(=O)COC(=O)c2ccc[nH]c2=O)C1 (stereo unspecified),inactive
7,COc1ccc(C2=NOC(C(=O)NCc3ccco3)C2)cc1 (stereo unspecified),inactive
8,CNC(=O)NC(=O)CSc1nc2sccc2c(=O)n1-c1ccccc1,"inconclusive: 0.517 µM [falling, full curve]"
9,CC(C)Nc1nc(Cl)nc(NCCOc2ccccc2)n1,"inconclusive: 4.11 µM [activator, full curve]"
10,NC(=O)c1cc2ccc(O)cc2oc1=Nc1ccccc1,"inconclusive: 0.731 µM [activator, full curve, poor fit]"
11,C=CCn1cccc(C(=O)Nc2ccc(OC)c(Cl)c2)c1=O,"inconclusive: 0.461 µM [activator, full curve, poor fit]"
12,COc1ccc(CCNC(=O)Nc2ccccc2[N+](=O)[O-])cc1,"inconclusive: 29.1 µM [activator, single point]"
13,COc1ccc(C(=O)c2sc3nc(-c4ccc(F)cc4)ccc3c2N)cc1,"inconclusive: 7.31 µM [falling, partial curve, poor fit]"
14,COc1ccc(-c2nc(Cn3c(SCc4cccc(C(F)(F)F)c4)nc4cccnc43)c(C)o2)cc1OC,active: 23.1 µM
15,CC(NC(=S)Nc1cccc(C(F)(F)F)c1)C(C)(C)C (stereo unspecified),"inconclusive: 25.9 µM [falling, single point]"
16,Cc1cc(N2C(=O)C(O)=C(C(=O)c3cc4ccccc4o3)C2c2ccc(Br)cc2)no1 (stereo unspecified),"inconclusive: 20.6 µM [falling, single point]"
17,Cc1ccc(C(=O)NC2CCc3ccccc3C2=O)cc1 (stereo unspecified),"inconclusive: 5.17 µM [activator, partial curve]"
18,COc1ccc(NC(=O)c2sc(=S)[nH]c2N)cc1,"inconclusive: 0.164 µM [activator, full curve]"
19,Cc1cc(OCC(=O)NCCc2c[nH]c3ccccc23)c2c(C)c(C)c(=O)oc2c1,"inconclusive: 29.1 µM [falling, single point]"
20,COc1ccc(C(=O)N2CCc3cc4c(cc3C2C)OCCCO4)cc1 (stereo unspecified),"inconclusive: 32.6 µM [falling, partial curve, poor fit]"
21,Cc1ccc2nc(NCc3ccccc3)c(C=NCc3cccnc3)c(=O)n2c1,"inconclusive: 2.31 µM [activator, full curve, poor fit]"
22,COc1ccccc1C(=O)NCCNc1nc2cc(C)cc(C)c2cc1C#N,"inconclusive: 7.31 µM [falling, partial curve]"

row,SMILES,Potency
1,COc1ccc(S(=O)(=O)Nc2cc3c(C(=O)OC(C)C)c(C)oc3c3ccccc23)cc1,"inconclusive: 23.1 µM [falling, single point]"
2,COc1cc(OC)c(C(=O)NNC(=O)c2ccccc2-n2cccc2)cc1OC,"inconclusive: 23.1 µM [falling, single point]"
3,CCOc1ccc2oc(C(=O)Nc3cc(C)ccn3)c(C)c2c1,"inconclusive: 7.31 µM [activator, partial curve]"
4,O=c1c2ccccc2nc(SCc2nc(-c3ccccc3)no2)n1-c1ccc(F)cc1,"inconclusive: 14.6 µM [falling, partial curve, poor fit]"
5,CC(C)C[C@H](NC(=O)c1nc[nH]c1C(=O)NCC(=O)OC(C)(C)C)C(=O)OC(C)(C)C,"inconclusive: 20.6 µM [falling, single point]"
6,NC(=S)N=Nc1c(O)n(CC(=O)Nc2ccccc2)c2ccccc12,"inconclusive: 20.6 µM [falling, single point]"
7,CC1Cc2ccccc2N1C(=O)CCn1cccn1 (stereo unspecified),inactive
8,O=C(CNc1cc(S(=O)(=O)N2CCOCC2)ccc1NCC1CCCO1)Nc1cccc(F)c1 (stereo unspecified),inactive
9,COc1cc(C(=O)OCC(=O)Nc2ccc(S(=O)(=O)NC3=NCCCCC3)cc2)cc(OC)c1OC,"inconclusive: 29.1 µM [falling, single point]"
10,O=C(COc1coc(CN2CCCc3ccccc32)cc1=O)Nc1ccccc1,"inconclusive: 25.9 µM [falling, partial curve, poor fit]"
11,CCOC(=O)Cn1cnc(-c2ccc([N+](=O)[O-])cc2)c1,"inconclusive: 18.4 µM [activator, partial curve]"
12,COc1cc(OC)c(NS(=O)(=O)c2ccc(Cl)c(C(=O)OC(C)C(=O)N3CCCC3)c2)cc1Cl (stereo unspecified),"inconclusive: 20.6 µM [falling, partial curve]"
13,O=C(O)c1cccc(NC2=C(Cl)C(=O)c3ccccc3C2=O)c1,"inconclusive: 29.1 µM [falling, single point]"
14,O=C(O)c1ccc(-c2ccccc2)[nH]1,"inconclusive: 2.91 µM [activator, full curve]"
15,CCN(C(=O)c1c(-c2ccccc2Cl)noc1C)C1CCCCC1,"inconclusive: 29.1 µM [falling, single point]"
16,Cc1ncc(CN2CCCC(C(=O)Nc3ccc(-c4cccc(F)c4)cc3)C2)s1 (stereo unspecified),"inconclusive: 18.4 µM [falling, single point]"
17,O=C(Nc1ncnc2sc3c(c12)CCCCC3)c1ccc(F)cc1,"inconclusive: 29.1 µM [falling, single point]"
18,Cc1cc(=O)oc2cc(NC(=O)c3cccc(S(=O)(=O)N(C)C)c3)ccc12,"inconclusive: 5.17 µM [activator, partial curve]"
19,Cc1ccc(C2(c3noc(CN(C)Cc4cccnc4)n3)CCCC2)cc1,inactive
20,CCOC(=O)c1nnn(-c2ccc(OC)cc2)c1N,"inconclusive: 25.9 µM [activator, single point]"
21,CCc1nnc2c(Nc3ccc(N(CC)CC)cc3C)nc3ccccc3n12,inactive
22,O=C(Nc1ccccc1N1CCCC1)c1cccc(Cl)c1Cl,"inconclusive: 29.1 µM [activator, single point]"

# Reformatted as tab-separated lines: entries from further up.
row	SMILES	Potency
18	Cc1cc(=O)oc2cc(NC(=O)c3cccc(S(=O)(=O)N(C)C)c3)ccc12	inconclusive: 5.17 µM [activator, partial curve]
19	Cc1ccc(C2(c3noc(CN(C)Cc4cccnc4)n3)CCCC2)cc1	inactive

# The list goes on.

row,SMILES,Potency
1,CCCC(=O)c1ccc(N2CCC(C)CC2)c(F)c1,"inconclusive: 14.6 µM [activator, partial curve, poor fit]"
2,Cc1nn(-c2ccccc2)c(C)c1/C=N/NC(=O)c1cc(-c2ccc(Cl)s2)[nH]n1,active: 10.3 µM
3,CCCCC#Cc1cncc(C(=O)NN)c1,active: 18.4 µM
4,Cc1cc(S(=O)(=O)Nc2ccc(C(=O)O)cc2)c(C)c(S(=O)(=O)c2ccc(Cl)cc2)c1,"inconclusive: 4.61 µM [falling, single point]"
5,CN(C)CCn1c(=O)n(-c2cccc(Cl)c2)c(=O)c2c3c(sc21)CCCCC3,"inconclusive: 29.1 µM [falling, single point]"
6,Cc1nc(C(=O)NNC(=O)c2ccc(Cl)cc2)c(C(F)(F)F)o1,"inconclusive: 16.4 µM [falling, single point]"
7,CCOC(=O)c1cccc(NC(=O)C(CC(C)C)N2Cc3ccccc3C2=O)c1 (stereo unspecified),inactive
8,O=C(O)c1ccc(N/N=C/c2cccc3cccnc23)cc1,"inconclusive: 0.411 µM [activator, full curve]"
9,CNc1nc(N)c([N+](=O)[O-])c(Nc2ccccc2OC)n1,"inconclusive: 20.6 µM [falling, single point]"
10,CCOC(=O)c1c(C)[nH]c(C(=O)N/N=C/c2cc([N+](=O)[O-])ccc2O)c1C,inactive
11,COc1ccc(/C=C/c2nnc(NC(=O)COc3cccc(C)c3)s2)cc1,"inconclusive: 18.4 µM [falling, partial curve]"
12,Cc1ccc(CN(C(=O)COc2cccc([N+](=O)[O-])c2)c2ccccn2)o1,"inconclusive: 18.4 µM [activator, single point]"
13,O=C(NCCOC12CC3CC(CC(C3)C1)C2)c1cccc(Br)c1,"inconclusive: 29.1 µM [falling, single point]"
14,O=C1/C(=C/c2cccc(F)c2)Oc2cc(O)ccc21,"inconclusive: 23.1 µM [falling, partial curve, poor fit]"
15,COc1ccc(NC(=O)CN(C)C(=O)c2cccc(Oc3ccccc3)c2)cc1,"inconclusive: 32.6 µM [falling, single point]"
16,N#CCCN1CCN(C(=S)c2ccc(-c3cc(Cl)ccc3Cl)o2)CC1,"inconclusive: 25.9 µM [falling, single point]"
17,O=S(=O)(c1cccs1)N1CCN(c2ccccc2Cl)CC1,"inconclusive: 29.1 µM [falling, partial curve, poor fit]"
18,COc1cccc(NC(=O)c2ccc(NC(=O)C(C)(C)C)cc2)c1,inactive
19,CCCCn1c(NS(=O)(=O)c2ccc(C)cc2)c(S(=O)(=O)c2ccccc2)c2nc3ccccc3nc21,inactive
20,Cc1ccc(-n2nc3c(c2NC(=O)CC(C)C)CS(=O)C3)cc1 (stereo unspecified),inactive
21,COc1ccc2oc(=O)c(C(=O)NCCc3c(C)[nH]c4c(Cl)cccc34)cc2c1,inactive
22,O=S(=O)(NCc1ccccc1)c1ccc(NC(=S)NCc2ccco2)cc1,"inconclusive: 25.9 µM [falling, single point]"
